PubChem BioAssay AID1508597 – Cure First – 2020
This is an unselected part of about 2,100 reagents tested. 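Calls flag viability under 80% in either arm, not effects specific to rucaparib; the reference for percent is not stated.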 Entries without a mark were called inactive. No sequences are given here. The record does not give: the 100% reference.

Aim: 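Survival screen with siRNA in ovarian cancer cells derived from patients, with or without rucaparib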 (primary screen)
Cells: human ovarian carcinoma lines grown from tumours: OCI-P5x (papillary serous) and OCI-C5x (clear cell)
Reagent: siRNA pool against human genes, 1.25 pmol siRNA per well
Time to read-out: 72 h or 96 h, depending on the cell culture
Treatment: rucaparib 20 µM (about IC30) or vehicle, present until read-out
Detection: 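Luminescent ATP-based viability assay read 72 or 96 h after transfection, depending on culture, given as normalised percent viability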
Scale: viability, normalised: higher = more viable cells remaining
Hit rule: 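Active when normalised viability falls below 80 percent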
Calls: active = viability under 80%; inactive = viability 80% or more

| gene | rucaparib or vehicle | cell line | technical replicate | viability, normalised (%) |
| --- | --- | --- | --- | --- |
| MTHFR | Rucaparib | OCI-C5x (clear cell) | 1 | 54.8 (active) |
| MTHFR | Rucaparib | OCI-C5x (clear cell) | 2 | 41.4 (active) |
| MTHFR | Rucaparib | OCI-C5x (clear cell) | 3 | 54 (active) |
| MTHFR | Rucaparib | OCI-P5x (serous) | 1 | 77.4 (active) |
| MTHFR | Rucaparib | OCI-P5x (serous) | 2 | 79.8 (active) |
| MTHFR | Rucaparib | OCI-P5x (serous) | 3 | 70.6 (active) |
| MTHFR | Vehicle | OCI-C5x (clear cell) | 1 | 42.4 (active) |
| MTHFR | Vehicle | OCI-C5x (clear cell) | 2 | 35.2 (active) |
| MTHFR | Vehicle | OCI-C5x (clear cell) | 3 | 54.1 (active) |
| MTHFR | Vehicle | OCI-P5x (serous) | 1 | 57.4 (active) |
| MTHFR | Vehicle | OCI-P5x (serous) | 2 | 79.7 (active) |
| MTHFR | Vehicle | OCI-P5x (serous) | 3 | 68.8 (active) |
| MAPK3 | Rucaparib | OCI-C5x (clear cell) | 1 | 45.4 (active) |
| MAPK3 | Rucaparib | OCI-C5x (clear cell) | 2 | 53.4 (active) |
| MAPK3 | Rucaparib | OCI-C5x (clear cell) | 3 | 52.5 (active) |
| MAPK3 | Rucaparib | OCI-P5x (serous) | 1 | 96.8 |
| MAPK3 | Rucaparib | OCI-P5x (serous) | 2 | 98 |
| MAPK3 | Rucaparib | OCI-P5x (serous) | 3 | 93.3 |
| MAPK3 | Vehicle | OCI-C5x (clear cell) | 1 | 67.8 (active) |
| MAPK3 | Vehicle | OCI-C5x (clear cell) | 2 | 62.9 (active) |
| MAPK3 | Vehicle | OCI-C5x (clear cell) | 3 | 64.7 (active) |
| MAPK3 | Vehicle | OCI-P5x (serous) | 1 | 103 |
| MAPK3 | Vehicle | OCI-P5x (serous) | 2 | 68.4 (active) |
| MAPK3 | Vehicle | OCI-P5x (serous) | 3 | 99.7 |

3 successive entries already listed:
| gene | rucaparib or vehicle | cell line | technical replicate | viability, normalised (%) |
| --- | --- | --- | --- | --- |
| MAPK3 | Rucaparib | OCI-C5x (clear cell) | 3 | 52.5 (active) |
| MAPK3 | Rucaparib | OCI-P5x (serous) | 1 | 96.8 |
| MAPK3 | Rucaparib | OCI-P5x (serous) | 2 | 98 |
